No constants are given. Whether binding was seen depends on the method and setting. Binding seen in cells or lysates may run through a third protein. Some entries that bind do so weakly or less than the wild type.

Chains of the proteins cited; added tags and fusions are not shown.
UniProt P35579: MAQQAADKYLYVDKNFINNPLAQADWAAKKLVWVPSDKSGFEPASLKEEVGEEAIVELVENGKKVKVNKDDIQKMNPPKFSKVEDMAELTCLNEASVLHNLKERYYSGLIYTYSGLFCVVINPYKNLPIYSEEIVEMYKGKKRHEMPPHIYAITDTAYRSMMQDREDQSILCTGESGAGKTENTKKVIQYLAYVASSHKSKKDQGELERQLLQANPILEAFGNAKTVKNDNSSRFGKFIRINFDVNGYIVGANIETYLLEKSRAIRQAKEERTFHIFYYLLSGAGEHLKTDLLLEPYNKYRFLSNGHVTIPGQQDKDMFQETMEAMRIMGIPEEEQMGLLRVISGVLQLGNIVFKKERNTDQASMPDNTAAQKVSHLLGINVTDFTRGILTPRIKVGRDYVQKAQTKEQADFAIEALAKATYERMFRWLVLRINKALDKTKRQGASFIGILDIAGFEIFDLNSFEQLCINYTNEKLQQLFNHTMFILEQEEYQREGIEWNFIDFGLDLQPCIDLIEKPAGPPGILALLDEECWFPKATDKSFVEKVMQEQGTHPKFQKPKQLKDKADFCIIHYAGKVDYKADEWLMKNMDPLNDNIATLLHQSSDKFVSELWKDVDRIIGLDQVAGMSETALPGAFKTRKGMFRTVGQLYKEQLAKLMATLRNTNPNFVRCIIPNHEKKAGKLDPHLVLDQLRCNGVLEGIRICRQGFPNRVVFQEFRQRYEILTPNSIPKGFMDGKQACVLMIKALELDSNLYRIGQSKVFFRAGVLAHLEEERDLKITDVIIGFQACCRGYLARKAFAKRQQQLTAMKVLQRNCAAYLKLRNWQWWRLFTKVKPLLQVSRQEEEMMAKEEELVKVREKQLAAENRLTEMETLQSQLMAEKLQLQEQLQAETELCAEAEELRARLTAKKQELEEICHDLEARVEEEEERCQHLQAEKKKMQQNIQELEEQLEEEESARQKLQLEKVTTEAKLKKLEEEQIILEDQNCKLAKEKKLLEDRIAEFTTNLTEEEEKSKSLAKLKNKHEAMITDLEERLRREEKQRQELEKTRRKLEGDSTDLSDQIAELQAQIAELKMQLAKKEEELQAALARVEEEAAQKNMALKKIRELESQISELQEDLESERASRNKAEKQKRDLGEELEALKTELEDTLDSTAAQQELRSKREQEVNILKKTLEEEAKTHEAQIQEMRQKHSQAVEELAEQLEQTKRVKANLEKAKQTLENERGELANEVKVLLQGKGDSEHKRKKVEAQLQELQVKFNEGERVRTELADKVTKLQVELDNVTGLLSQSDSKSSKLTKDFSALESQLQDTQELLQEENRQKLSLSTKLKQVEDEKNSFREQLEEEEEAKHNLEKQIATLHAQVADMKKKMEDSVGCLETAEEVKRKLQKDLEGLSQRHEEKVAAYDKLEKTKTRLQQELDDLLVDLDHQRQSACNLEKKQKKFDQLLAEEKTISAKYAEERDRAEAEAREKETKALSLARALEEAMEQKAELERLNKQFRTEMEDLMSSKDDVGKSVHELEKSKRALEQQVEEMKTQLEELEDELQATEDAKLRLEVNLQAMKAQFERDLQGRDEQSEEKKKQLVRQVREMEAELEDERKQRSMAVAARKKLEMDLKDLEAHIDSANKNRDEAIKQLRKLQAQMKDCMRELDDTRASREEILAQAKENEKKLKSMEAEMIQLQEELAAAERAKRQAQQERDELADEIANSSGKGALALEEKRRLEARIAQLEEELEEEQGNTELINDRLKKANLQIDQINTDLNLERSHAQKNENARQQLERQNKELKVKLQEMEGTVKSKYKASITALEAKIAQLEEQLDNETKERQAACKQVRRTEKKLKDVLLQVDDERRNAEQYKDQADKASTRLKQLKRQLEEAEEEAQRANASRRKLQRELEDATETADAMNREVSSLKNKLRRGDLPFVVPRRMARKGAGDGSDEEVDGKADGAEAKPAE
UniProt O75528: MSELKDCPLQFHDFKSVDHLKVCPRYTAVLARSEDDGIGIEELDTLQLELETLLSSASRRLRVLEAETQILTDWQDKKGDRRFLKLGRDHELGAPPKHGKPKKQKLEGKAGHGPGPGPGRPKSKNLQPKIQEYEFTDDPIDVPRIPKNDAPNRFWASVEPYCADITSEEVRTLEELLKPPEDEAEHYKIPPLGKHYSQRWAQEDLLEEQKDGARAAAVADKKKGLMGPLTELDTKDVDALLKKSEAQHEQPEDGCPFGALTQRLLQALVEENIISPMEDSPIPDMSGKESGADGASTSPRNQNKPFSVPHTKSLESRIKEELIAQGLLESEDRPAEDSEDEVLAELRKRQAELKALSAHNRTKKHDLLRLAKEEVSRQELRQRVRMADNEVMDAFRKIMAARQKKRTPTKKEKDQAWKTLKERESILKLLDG

The values below come from article PMC10673876.

For test [1], the target named is T1, Emerin (human (endogenous in K562)) (UniProt P50402).
T1 sequence: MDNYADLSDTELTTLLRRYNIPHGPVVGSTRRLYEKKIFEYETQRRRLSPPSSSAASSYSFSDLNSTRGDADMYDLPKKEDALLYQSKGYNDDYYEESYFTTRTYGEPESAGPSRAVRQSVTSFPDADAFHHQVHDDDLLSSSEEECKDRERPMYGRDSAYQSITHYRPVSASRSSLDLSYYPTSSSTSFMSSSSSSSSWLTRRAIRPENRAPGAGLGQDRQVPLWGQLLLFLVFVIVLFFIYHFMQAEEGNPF
Nature of the test: co-IP; K562 cells with or without glucose for 48 h; RIPA lysate (1.5 mg) incubated with Emerin or TAF9B antibody overnight at 4 °C, Protein A/G magnetic beads, washed with PBS; immunoblotting. On the technique in general: A western blot detects proteins with antibodies after separation by electrophoresis.

Test [2] addresses TAF9B (human (endogenous in K562)) (UniProt Q9HBM6). The description is as above.

Consider MYH9 (from UniProt P35579 1-1960), for which, in test [1], the binding result was “binds”.
With TADA3L (from UniProt O75528 1-432), the binding result in test [2] is “binds”.
